According to patent publication US9745349B2, “Cyclic peptide and pharmaceutical product containing same” (JAPAN SCIENCE AND TECHNOLOGY AGENCY, priority 2012, dated 2017):
Some results were stated once for a whole list of compounds, not compound by compound.

Chains of the proteins cited; added tags and fusions are not shown. Residues count along the entry.
UniProt P05067, 672-713 limits assumed: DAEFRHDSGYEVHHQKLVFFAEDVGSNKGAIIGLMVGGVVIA

Target: O-acyl isopeptide of Aβ (Homo sapiens, UniProt P05067)
Test: Aβ aggregation inhibition test (thioflavin T fluorescence)
Format: biochemical
Settings: summary of Table 1, comparison with the chain compound

cyclo-L-[Lys-Leu-Val-Phe-Phe] [Compound 1]
Aβ aggregation inhibitory activity (in words): higher than that of the chain compound

cyclo-D-[Lys-Leu-Val-Phe(βPh)-Phe] [Compound 8]
Aβ aggregation inhibitory activity (in words): higher than that of the chain compound
Aβ aggregation inhibitory activity (in words) (listed as compound 8): markedly high

cyclo-D-[Lys-Leu-Val-(4-(5-pyrimidine)-Ph)Ala-Phe] [Compound 16]
Aβ aggregation inhibitory activity (in words): higher than that of the chain compound

cyclo-D-[Lys-Leu-Val-(4-(3-Py)-Ph)Ala-Phe] [Compound 14]
Aβ aggregation inhibitory activity (in words): higher than that of the chain compound

cyclo-D-[Lys-Leu-Val-(4-(4-Py)-Ph)Ala-Phe] [Compound 15]
Aβ aggregation inhibitory activity (in words): higher than that of the chain compound

cyclo-D-[Lys-Leu-Val-Phe-Phe] [Compound 2]
Aβ aggregation inhibitory activity (in words): higher than that of the chain compound

cyclo-D-[Lys-Leu-Val-(4-(2-Py)-Ph)Ala-Phe] [Compound 13]
Aβ aggregation inhibitory activity (in words): higher than that of the chain compound

cyclo-D-[Lys-Leu-Val-(1-Nal)-Phe] [Compound 12]
Aβ aggregation inhibitory activity (in words): higher than that of the chain compound
Aβ aggregation inhibitory activity (in words) (listed as compound 12): markedly high

cyclo-D-[Lys-Leu-Val-(3-bi-Ph)Ala-Phe] [Compound 10]
Aβ aggregation inhibitory activity (in words): higher than that of the chain compound
Aβ aggregation inhibitory activity (in words) (listed as compound 10): markedly high

cyclo-D-[Lys-Leu-Val-(4-bi-Ph)Ala-Phe] [Compound 9]
Aβ aggregation inhibitory activity (in words): higher than that of the chain compound
Aβ aggregation inhibitory activity (in words) (listed as compound 9): markedly high

cyclo-D-[Lys-Leu-Val-(2-bi-Ph)Ala-Phe] [Compound 11]
Aβ aggregation inhibitory activity (in words): higher than that of the chain compound
Aβ aggregation inhibitory activity (in words) (listed as compound 11): markedly high
